Results are given in words; binding and its absence hold for the method and conditions named. Some entries that bind do so weakly or less than the wild type. Where a sequence is shown, tags or fusion partners need not be part of it.

For this assay, the target named is T1, FLAG-EXT1 (human) (UniProt Q16394).
T1 sequence: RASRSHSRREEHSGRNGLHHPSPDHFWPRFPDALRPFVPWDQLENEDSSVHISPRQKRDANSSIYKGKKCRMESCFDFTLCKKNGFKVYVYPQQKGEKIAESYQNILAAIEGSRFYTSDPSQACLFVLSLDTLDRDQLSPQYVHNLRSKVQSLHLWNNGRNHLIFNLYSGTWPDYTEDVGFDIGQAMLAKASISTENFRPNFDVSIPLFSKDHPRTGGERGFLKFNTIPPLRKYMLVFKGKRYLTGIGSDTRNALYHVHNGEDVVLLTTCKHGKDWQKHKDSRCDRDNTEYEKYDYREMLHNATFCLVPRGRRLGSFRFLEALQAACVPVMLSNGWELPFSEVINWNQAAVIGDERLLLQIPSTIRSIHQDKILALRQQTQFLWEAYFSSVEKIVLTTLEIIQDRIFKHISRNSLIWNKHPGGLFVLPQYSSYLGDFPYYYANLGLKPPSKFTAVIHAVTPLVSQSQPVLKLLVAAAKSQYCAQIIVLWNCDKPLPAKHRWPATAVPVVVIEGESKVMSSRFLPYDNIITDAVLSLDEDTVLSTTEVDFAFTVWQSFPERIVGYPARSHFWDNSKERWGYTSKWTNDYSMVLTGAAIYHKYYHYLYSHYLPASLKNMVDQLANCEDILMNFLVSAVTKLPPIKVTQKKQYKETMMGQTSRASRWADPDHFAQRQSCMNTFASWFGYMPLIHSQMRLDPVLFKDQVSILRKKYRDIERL
Briefly: co-purification (anti-FLAG affinity resin, then SEC); FLAG-EXT1 and His-EXT2 co-expressed in Expi293F; cleared medium on anti-DYKDDDK resin, washed with 25 mM Na-HEPES pH 7.5, 150 mM NaCl, eluted with FLAG peptide, then size exclusion chromatography.

B1: His-EXT2 (enzyme, UniProt Q93063 47-718)
chain: PHSIESSNDWNVEKRSIRDVPVVRLPADSPIPERGDLSCRMHTCFDVYRCGFNPKNKIKVYIYALKKYVDDFGVSVSNTISREYNELLMAISDSDYYTDDINRACLFVPSIDVLNQNTLRIKETAQAMAQLSRWDRGTNHLLFNMLPGGPPDYNTALDVPRDRALLAGGGFSTWTYRQGYDVSIPVYSPLSAEVDLPEKGPGPRQYFLLSSQVGLHPEYREDLEALQVKHGESVLVLDKCTNLSEGVLSVRKRCHKHQVFDYPQVLQEATFCVVLRGARLGQAVLSDVLQAGCVPVVIADSYILPFSEVLDWKRASVVVPEEKMSDVYSILQSIPQRQIEEMQRQARWFWEAYFQSIKAIALATLQIINDRIYPYAAISYEEWNDPPAVKWGSVSNPLFLPLIPPQSQGFTAIVLTYDRVESLFRVITEVSKVPSLSKLLVVWNNQNKNPPEDSLWPKIRVPLKVVRTAENKLSNRFFPYDEIETEAVLAIDDDIIMLTSDELQFGYEVWREFPDRLVGYPGRLHLWDHEMNKWKYESEWTNEVSMVLTGAAFYHKYFNYLYTYKMPGDIKNWVDAHMNCEDIAMNFLVANVTGKAVIKVTPRKKFKCPECTAIDGLSLDQTHMVERSECINKFASVFGTMPLKVVEHRADPVLYKDDFPEKLKSFPNIGSL
In the case of B1, the binding result is “binds”.

(Values after PMC10570366, “Molecular mechanism of decision-making in glycosaminoglycan biosynthesis” (Nature Communications, 2023).)
